Measured values reported in paper PMC3701704.
Results are given in words; binding and its absence hold for the method and conditions named.

Molecular target: Zeste fused to the C terminus of GAL4 DNA binding domain (Drosophila)
Assay: two-hybrid; yeast strain pJ69-4A, Clontech plasmids; growth on media without tryptophan, leucine, histidine and adenine, and liquid culture beta-galactosidase assay; Mod(mdg4)-67.2 fragments on the GAL4 activating domain, Zeste on the GAL4 DNA binding domain

B1: Su(Hw) protein (yeast two-hybrid construct) (protein, UniProt P08970 1-941)
chain: MSASKEGKEKKGKLLGVENISPPKDKRPATRMKLLNDVGAGEDSEASTTTTTSRTPSNKQEKRGSVAGSRIKILNEEILGTPKTEKRGATKSTAPAASTVKILNEKKTPSATVTAVETTKIKTSPSKRKKMEHYVLQAVKSENTKADTTVTVVTEEDDTIDFILADDEEVVPGRIENNNGQEIVVTEDDEDLGEDGDEDGEDSSGKGNSSQTKIKEIVEHVCGKCYKTFRRVQSLKKHLEFCRYDSGYHLRKADMLKNLEKIEKDAVVMEKKDICFCCSESYDTFHLGHINCPDCPKSFKTQTSYERHIFITHSEFSDFPCSICNANLRSEALLALHEEQHKSRGKPYACKICGKDFTRSYHLKRHQKYSSCSSNETDTMSCKVCDRVFYRLDNLRSHLKQHLGTQVVKKPEYMCHTCKNCFYSLSTLNIHIRTHTGEKPFDCDLCDKKFSALVALKKHRRYHTGEKPYSCTVCNQAFAVKEVLNRHMKRHTGERPHKCDECGKSFIQATQLRTHSKTHIRPFPCEQCDEKFKTEKQLERHVKTHSRTKRPVFSCAECKRNFRTPALLKEHMDEGKHSPKQQRSSMRSAVKIMERTDCAICDKNFDSSDTLRRHIRTVHECDPDDIFGVEPHPSKRAKKDIESEEVVPVALNTSAGSLISSQTDGNGVVVREFLVDEGDGAAQTITLENETYTILPLDGAIEGEQLTDEAGVKPEAKKEEAQVSPVVKKEQRKSLAASLAAAIADNLEESCSEDDFSGEILTEEDIKLKENVGKLIDMLVDPPILKKYGWPNAPEETVLCKVIENCGHDLTKGGENYAELDYGSRMREYCKLLFTVVIHNDSIKSLLNNFPIDDVIEYVLGDEDQDEGGLDKDNESHSGDEEAVSVTGETKTNEIREKPEKKEVSAKSEKKEIVGKAVDKDNSEEVVRENKKKPVGEQEKA
binding: no binding
